JP2021136920A
Results are given in words; binding and its absence hold for the method and conditions named. A result given as binding can be weak or reduced; the word gives no strength.

Experiments:
A-peak-RSA (rabbit) [1] = assay: ELISA on immobilised A-peak-RSA, antibody 50 and 100 ng/mL
A-peak-RSA (rabbit) [2] = assay: ELISA, concentration series on immobilised A-peak-RSA (Figure 36)

binding (A-peak-RSA (rabbit) [1])	binding (A-peak-RSA (rabbit) [2])	Binder
binds	binds	PB−1ヒト化抗体 HuPB-1 VH1/HuPB-1 VL1 (antibody, human IgG1, V domains shown) VH: QVQLVQSGAEVKKPGASVKVSCKASGYSFTGYYMHWVRQAPGQRLEWIGRIIPYSGATSYNQNFKDRATLTVDTSASTAYMELSSLRSEDTAVYYCARSRYYGRAPYYFDYWGQGTTVTVSS VL: DIVMTQSPLSLPVTPGEPASISCRSSQSIVHSSGNTYLEWYLQKPGQSPQLLIYKVSNRFSGVPDRFSGSGSGTDFTLKISRVEAEDVGVYSCFQGSHVPFTFGGGTKVEIK
binds	binds	PB−1ヒト化抗体 HuPB-1 VH2/HuPB-1 VL1 (antibody, human IgG1, V domains shown) VH: QVQLVQSGAEVKKPGASVKVSCKASGYSFTGYYMHWVRQAPGQRLEWIGRIIPYSGATSYNQNFKDRATLTVDKSASTAYMELSSLRSEDTAVYYCARSRYYGRAPYYFDYWGQGTTVTVSS VL: DIVMTQSPLSLPVTPGEPASISCRSSQSIVHSSGNTYLEWYLQKPGQSPQLLIYKVSNRFSGVPDRFSGSGSGTDFTLKISRVEAEDVGVYSCFQGSHVPFTFGGGTKVEIK
binds	binds	PB−1ヒト化抗体 HuPB-1 VH1/HuPB-1 VL2 (antibody, human IgG1, V domains shown) VH: QVQLVQSGAEVKKPGASVKVSCKASGYSFTGYYMHWVRQAPGQRLEWIGRIIPYSGATSYNQNFKDRATLTVDTSASTAYMELSSLRSEDTAVYYCARSRYYGRAPYYFDYWGQGTTVTVSS VL: DIVMTQSPLSLPVTPGEPASISCRSSQSIVHSSGNTYLEWYLQKPGQSPQLLIYKVSNRFSGVPDRISGSGSGTDFTLKISRVEAEDVGVYSCFQGSHVPFTFGGGTKVEIK
binds	binds	PB−1ヒト化抗体 HuPB-1 VH2/HuPB-1 VL2 (antibody, human IgG1, V domains shown) VH: QVQLVQSGAEVKKPGASVKVSCKASGYSFTGYYMHWVRQAPGQRLEWIGRIIPYSGATSYNQNFKDRATLTVDKSASTAYMELSSLRSEDTAVYYCARSRYYGRAPYYFDYWGQGTTVTVSS VL: DIVMTQSPLSLPVTPGEPASISCRSSQSIVHSSGNTYLEWYLQKPGQSPQLLIYKVSNRFSGVPDRISGSGSGTDFTLKISRVEAEDVGVYSCFQGSHVPFTFGGGTKVEIK
binds	binds	PB−1キメラ抗体(ChPB-1NN VH/ChPB-1NN VL) (antibody, human IgG1, V domains shown) VH: EVRLQQSGPELVKPGTSVKISCKASGYSFTGYYMHWVKQSPVKSLEWIGRIIPYNGATSYNQNFKDKASLTVDKSSRTAYMDLHSLTSEDSAVYYCARSRYYGRAPYYFDYWGQGTTLTVSS VL: DVVVTQTPLSLPVSLGDQASISCRSSQSIVHSNGNTYLEWYLQKPGQSPKLLIYKVSNRFSGVPDRISGSGSGTDFTLKISRVEAGDLGVYSCFQGSHVPFTFGSGTKLEIK
